Measured values: the supplement of paper PMC11006884
This list holds what a sample rich in targets with a hit left over. This is a noisy data set. The list shows a part of the results, in another mix than the full data.

Amino acid sequences for entries named in this document (tags omitted). A change or cut given only in a name is not applied to a line headed by its entry.
UniProt Q9NQG6: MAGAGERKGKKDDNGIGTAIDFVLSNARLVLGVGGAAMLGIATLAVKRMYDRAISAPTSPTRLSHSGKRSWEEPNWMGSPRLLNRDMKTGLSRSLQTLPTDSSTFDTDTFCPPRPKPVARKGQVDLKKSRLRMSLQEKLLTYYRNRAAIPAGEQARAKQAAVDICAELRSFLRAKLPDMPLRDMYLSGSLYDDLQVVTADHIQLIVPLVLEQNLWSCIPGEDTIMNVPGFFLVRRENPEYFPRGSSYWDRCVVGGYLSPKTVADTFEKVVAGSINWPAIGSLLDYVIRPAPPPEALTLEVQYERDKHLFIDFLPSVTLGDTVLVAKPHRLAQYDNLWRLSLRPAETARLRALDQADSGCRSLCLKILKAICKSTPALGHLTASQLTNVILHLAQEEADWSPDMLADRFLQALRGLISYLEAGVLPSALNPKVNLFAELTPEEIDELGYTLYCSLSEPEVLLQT
UniProt Q9HAV4: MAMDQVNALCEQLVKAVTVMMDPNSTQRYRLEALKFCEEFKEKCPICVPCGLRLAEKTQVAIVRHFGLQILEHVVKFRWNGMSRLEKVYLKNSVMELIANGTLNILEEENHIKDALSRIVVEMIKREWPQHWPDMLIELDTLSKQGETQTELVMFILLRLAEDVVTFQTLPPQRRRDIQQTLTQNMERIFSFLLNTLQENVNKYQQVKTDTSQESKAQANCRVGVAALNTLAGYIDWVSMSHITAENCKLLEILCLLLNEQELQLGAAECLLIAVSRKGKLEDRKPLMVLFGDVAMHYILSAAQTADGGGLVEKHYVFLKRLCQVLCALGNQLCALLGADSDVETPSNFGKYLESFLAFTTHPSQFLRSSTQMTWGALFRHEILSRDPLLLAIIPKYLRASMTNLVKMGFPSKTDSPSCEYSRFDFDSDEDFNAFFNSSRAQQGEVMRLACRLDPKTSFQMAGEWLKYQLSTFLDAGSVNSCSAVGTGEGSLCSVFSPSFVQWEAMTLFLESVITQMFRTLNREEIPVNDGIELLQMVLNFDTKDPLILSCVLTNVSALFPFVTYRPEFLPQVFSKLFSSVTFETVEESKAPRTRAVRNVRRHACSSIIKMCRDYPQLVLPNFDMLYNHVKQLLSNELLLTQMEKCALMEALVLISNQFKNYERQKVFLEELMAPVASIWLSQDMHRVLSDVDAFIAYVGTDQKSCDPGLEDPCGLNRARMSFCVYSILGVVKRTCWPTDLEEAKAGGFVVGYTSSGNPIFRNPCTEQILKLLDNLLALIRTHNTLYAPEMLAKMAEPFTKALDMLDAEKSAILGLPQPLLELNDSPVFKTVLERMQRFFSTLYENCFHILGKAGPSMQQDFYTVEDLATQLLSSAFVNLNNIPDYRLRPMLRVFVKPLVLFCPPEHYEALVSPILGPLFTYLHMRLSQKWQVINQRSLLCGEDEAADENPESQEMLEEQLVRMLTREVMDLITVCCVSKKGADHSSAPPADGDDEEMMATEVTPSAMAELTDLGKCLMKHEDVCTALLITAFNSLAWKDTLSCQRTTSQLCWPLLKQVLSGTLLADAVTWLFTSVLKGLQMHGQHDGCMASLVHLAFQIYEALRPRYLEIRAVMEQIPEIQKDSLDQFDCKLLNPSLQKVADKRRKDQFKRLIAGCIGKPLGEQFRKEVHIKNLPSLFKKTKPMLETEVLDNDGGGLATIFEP
UniProt Q9NQZ2: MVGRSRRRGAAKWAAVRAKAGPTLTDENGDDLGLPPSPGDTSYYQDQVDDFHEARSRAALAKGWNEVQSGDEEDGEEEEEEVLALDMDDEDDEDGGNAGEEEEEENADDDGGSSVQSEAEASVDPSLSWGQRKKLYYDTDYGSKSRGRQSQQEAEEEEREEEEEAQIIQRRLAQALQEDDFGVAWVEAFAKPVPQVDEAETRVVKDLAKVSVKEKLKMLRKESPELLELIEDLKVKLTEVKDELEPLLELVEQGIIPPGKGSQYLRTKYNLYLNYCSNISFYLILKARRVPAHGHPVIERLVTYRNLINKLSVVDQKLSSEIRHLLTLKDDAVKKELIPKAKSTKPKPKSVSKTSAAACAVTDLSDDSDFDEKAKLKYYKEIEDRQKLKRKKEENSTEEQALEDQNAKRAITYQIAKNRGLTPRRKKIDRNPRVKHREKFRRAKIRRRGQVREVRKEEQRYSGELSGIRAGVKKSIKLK
UniProt Q9HC38: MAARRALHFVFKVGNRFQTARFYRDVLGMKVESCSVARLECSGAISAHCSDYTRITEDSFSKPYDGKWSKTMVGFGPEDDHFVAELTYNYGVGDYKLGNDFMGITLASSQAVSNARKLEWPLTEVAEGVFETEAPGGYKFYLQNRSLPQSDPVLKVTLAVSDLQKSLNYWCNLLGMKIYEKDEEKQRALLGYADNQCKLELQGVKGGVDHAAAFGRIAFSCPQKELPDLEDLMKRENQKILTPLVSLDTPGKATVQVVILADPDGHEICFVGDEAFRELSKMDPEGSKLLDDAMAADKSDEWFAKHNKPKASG
UniProt Q9H4L5: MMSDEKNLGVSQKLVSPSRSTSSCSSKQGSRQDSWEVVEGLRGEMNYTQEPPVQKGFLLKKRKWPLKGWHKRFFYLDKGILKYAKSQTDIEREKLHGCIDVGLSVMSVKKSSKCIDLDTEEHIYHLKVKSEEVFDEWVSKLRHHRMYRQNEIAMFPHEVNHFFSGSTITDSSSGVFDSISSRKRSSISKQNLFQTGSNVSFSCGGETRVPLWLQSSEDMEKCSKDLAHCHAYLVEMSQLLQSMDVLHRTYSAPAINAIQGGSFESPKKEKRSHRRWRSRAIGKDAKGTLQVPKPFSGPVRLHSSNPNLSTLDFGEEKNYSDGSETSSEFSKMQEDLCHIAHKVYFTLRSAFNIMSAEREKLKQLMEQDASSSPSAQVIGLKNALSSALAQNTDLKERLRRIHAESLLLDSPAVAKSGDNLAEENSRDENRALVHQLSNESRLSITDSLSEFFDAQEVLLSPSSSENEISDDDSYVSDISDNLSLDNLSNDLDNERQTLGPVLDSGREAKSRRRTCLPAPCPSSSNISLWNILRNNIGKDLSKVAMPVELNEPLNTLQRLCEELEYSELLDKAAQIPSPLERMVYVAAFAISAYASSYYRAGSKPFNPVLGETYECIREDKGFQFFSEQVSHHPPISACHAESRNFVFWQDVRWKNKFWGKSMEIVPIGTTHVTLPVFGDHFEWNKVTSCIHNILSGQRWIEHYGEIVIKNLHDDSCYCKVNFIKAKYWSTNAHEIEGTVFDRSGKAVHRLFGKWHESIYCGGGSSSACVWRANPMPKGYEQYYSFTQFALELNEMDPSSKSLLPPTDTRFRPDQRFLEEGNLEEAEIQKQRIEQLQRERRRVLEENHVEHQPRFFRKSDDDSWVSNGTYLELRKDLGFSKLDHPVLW
UniProt Q9H7E9: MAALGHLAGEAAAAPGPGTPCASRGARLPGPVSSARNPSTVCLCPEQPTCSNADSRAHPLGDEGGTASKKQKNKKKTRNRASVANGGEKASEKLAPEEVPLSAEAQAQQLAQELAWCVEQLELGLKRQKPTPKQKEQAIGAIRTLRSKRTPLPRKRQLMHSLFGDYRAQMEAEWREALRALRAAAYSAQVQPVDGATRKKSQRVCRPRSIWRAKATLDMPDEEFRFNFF
UniProt Q9NQR4: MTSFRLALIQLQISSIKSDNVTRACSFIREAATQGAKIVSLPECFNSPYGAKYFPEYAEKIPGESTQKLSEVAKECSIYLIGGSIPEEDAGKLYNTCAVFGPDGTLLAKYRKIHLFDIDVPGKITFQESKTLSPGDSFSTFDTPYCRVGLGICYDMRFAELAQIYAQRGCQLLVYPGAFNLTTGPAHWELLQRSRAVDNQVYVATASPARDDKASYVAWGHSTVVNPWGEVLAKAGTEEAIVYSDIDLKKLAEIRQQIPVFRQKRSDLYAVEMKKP
UniProt Q9NRL2: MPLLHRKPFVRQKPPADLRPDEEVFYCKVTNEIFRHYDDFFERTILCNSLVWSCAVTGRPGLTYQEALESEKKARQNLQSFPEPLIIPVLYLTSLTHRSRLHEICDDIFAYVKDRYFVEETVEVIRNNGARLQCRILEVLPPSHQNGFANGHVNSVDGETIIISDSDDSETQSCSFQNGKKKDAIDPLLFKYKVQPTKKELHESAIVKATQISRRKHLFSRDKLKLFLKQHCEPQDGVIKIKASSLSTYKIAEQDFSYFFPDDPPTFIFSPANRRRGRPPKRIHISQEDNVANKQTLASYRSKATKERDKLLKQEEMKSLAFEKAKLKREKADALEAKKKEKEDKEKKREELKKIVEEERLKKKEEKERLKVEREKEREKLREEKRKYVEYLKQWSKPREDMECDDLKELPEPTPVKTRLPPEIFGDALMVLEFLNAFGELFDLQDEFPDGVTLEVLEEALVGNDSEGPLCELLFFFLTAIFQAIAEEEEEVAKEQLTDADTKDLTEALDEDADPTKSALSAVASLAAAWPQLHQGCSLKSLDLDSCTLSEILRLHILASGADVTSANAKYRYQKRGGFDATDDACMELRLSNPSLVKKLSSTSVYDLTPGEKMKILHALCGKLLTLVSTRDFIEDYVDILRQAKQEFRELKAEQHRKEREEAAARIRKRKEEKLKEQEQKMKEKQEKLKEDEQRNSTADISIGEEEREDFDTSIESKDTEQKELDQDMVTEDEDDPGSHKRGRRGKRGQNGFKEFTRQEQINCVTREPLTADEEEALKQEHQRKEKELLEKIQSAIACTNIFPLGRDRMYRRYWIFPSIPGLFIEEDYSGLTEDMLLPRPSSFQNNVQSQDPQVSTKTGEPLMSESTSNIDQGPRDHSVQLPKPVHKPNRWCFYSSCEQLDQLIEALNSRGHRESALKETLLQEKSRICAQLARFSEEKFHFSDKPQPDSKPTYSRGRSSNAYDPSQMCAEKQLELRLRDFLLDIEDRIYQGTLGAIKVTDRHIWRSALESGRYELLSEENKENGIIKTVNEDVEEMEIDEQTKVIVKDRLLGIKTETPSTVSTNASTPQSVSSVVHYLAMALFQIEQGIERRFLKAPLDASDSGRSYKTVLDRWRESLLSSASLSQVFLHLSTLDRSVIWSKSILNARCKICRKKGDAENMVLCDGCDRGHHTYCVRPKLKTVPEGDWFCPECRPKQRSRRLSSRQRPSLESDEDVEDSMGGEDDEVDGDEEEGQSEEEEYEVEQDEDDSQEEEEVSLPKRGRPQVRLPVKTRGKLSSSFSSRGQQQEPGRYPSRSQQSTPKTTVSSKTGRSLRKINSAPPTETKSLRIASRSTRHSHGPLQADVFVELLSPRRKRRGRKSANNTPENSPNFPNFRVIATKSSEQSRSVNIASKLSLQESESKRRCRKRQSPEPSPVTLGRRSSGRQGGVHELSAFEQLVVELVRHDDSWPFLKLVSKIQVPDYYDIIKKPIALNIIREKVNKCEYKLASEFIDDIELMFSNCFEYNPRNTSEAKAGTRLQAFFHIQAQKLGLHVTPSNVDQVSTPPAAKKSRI
UniProt Q9H840: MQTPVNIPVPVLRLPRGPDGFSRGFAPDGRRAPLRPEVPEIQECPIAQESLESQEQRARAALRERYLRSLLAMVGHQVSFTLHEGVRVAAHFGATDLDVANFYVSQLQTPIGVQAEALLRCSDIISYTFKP
UniProt Q9NR33: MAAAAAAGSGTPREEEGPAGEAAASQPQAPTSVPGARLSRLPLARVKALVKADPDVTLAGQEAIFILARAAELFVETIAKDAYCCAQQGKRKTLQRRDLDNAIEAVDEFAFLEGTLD
UniProt Q9H8H0: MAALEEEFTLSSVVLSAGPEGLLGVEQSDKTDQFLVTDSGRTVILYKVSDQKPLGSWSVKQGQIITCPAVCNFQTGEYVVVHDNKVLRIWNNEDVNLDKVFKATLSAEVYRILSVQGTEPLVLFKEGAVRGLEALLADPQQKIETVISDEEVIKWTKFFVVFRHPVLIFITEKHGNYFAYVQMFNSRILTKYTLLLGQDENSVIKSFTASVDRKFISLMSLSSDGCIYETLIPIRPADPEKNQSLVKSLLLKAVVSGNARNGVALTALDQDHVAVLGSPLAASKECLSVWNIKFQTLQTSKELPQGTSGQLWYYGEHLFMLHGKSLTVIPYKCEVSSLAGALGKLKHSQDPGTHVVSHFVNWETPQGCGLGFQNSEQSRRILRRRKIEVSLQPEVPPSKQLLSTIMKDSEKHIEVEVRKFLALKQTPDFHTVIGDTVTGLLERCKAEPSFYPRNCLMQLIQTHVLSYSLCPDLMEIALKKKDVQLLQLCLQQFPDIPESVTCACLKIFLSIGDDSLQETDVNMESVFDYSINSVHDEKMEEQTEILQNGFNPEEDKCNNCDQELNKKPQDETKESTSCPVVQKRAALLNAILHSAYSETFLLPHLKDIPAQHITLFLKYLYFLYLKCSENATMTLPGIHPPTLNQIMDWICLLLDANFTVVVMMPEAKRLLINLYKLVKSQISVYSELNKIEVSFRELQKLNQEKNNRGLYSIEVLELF
UniProt Q9NUP1: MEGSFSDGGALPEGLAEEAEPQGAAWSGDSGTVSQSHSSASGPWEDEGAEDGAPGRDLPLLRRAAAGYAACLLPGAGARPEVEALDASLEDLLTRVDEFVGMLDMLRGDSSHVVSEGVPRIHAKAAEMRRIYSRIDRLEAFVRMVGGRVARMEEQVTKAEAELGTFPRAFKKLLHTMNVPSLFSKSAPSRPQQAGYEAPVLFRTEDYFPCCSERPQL

The targets below were run with COC(=O)/C=C/c1ccccc1 [methyl cinnamate] (assay: log2 ratio of iodoacetamide-alkyne labeling of the cysteine site, DMSO over compound (competition); higher = stronger covalent engagement of the cysteine by the compound, active = 1 or more). Details: 500 µM; treatment time 1 h; system: HEK293T cell lysate.
Summary of the method: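 The log2 competition ratio per cysteine is defined as mean reporter intensity in control channels over mean reporter intensity in compound channels. Lysate from HEK293T cells (2 mg/mL) received electrophile (500 µM) or vehicle for 1 h at ambient temperature, followed by iodoacetamide alkyne for 1 h. Samples were clicked to sCIP-TMT reagents, pooled, trypsin-digested overnight at 37 °C, streptavidin-enriched, acid-eluted and run on Orbitrap Eclipse LC-MS/MS with FAIMS, with quantification in FragPipe. Three replicates with duplicate channels were used, and any cysteine quantified in only one replicate was excluded.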

log2 ratio of iodoacetamide-alkyne labeling, inactive:
AAAS C444 (UniProt Q9NRG9) 0.0683, BIRC6 C1357 (UniProt Q9NR09) 0.0137, FAM83D C15 (UniProt Q9H4H8) 0.478, MCCC2 C167 (UniProt Q9HCC0) 0.0763, TTC12 C525 (UniProt Q9H892) 0.31, UniProt Q9NQG6_C111 0.517, MYO10 C1517 (UniProt Q9HD67) 0.0394, XPO5 C736 (UniProt Q9HAV4) 0.278, CXorf56 C96 (UniProt Q9H5V9) -0.106, UTP3 C359 (UniProt Q9NQZ2) 0.14, GLOD4 C269 (UniProt Q9HC38) -0.00484, CHD8 C752 (UniProt Q9HCK8) -0.0596, OSBPL3 C520 (UniProt Q9H4L5) -0.0227, EIF4ENIF1 C767 (UniProt Q9NRA8) 0.58, HEATR1 C49 (UniProt Q9H583) -0.0658, DSN1 C287 (UniProt Q9H410) -0.149, REEP4 C200 (UniProt Q9H6H4) 0.322, XPO5 C1025 (UniProt Q9HAV4) 0.313, IARS2 C155 (UniProt Q9NSE4) 0.0867, C8orf33 C21 (UniProt Q9H7E9) 0.107, NIT2 C146 (UniProt Q9NQR4) 0.332, UniProt Q9HAU4_C293 -0.059, HELLS C836 (UniProt Q9NRZ9) 0.0954, GPHN C293 (UniProt Q9NQX3) 0.483, BAZ1A C898 (UniProt Q9NRL2) 0.37, GEMIN7 C121 (UniProt Q9H840) 0.283, PEAK1 C993 (UniProt Q9H792) 0.181, POLE4 C84 (UniProt Q9NR33) 0.0596, ISYNA1 C541 (UniProt Q9NPH2) 0.371, RANBP3 C203 (UniProt Q9H6Z4) 0.413, PDS5B C1069 (UniProt Q9NTI5) 0.162, NOL11 C368 (UniProt Q9H8H0) -0.0289, UniProt Q9NUP1_C210 0.169, OSBPL3 C203 (UniProt Q9H4L5) 0.299, GRPEL1 C124 (UniProt Q9HAV7) 0.339, CHD8 C2378 (UniProt Q9HCK8) 0.138, C11orf68 C199 (UniProt Q9H3H3) 0.0529
